Measured values: PubChem BioAssay AID504834 (National Center for Advancing Translational Sciences (NCATS), 2011)
In all, about 320,000 compounds went through this assay and about 22,000 (6.9%) were called active. This list was built around the results that the source calls inconclusive (neither active nor inactive); the mix of calls is not that of the screen. Calls follow the shape of the dose curve; as a rule, active = well fitted inhibition curve with a large enough effect; inconclusive = small, poorly fitted or top-dose-only effect, or another doubt; inactive = no such curve, though single readings can be large or run the other way. A potency beside an inconclusive call is a rough fit, not a confirmed value.

Assay: Primary qHTS for delayed death inhibitors of the malarial parasite plastid, 96 hour incubation
Conditions: P. falciparum luciferase reporter growth; series mostly up to 28.7 µM
Procedure, shortened: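 Readout is luminescence from an integrated firefly luciferase in P. falciparum. Red cells, 2% hematocrit and 0.05% parasitemia final, were cultured with compound through two parasite generations (96 hours) at 37 C, 5% CO2.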
Potency is read from the fitted curve at half-maximal effect.

| SMILES | Potency |
| --- | --- |
| O=C(Nc1ccc(S(=O)(=O)Nc2nccs2)cc1)c1cc(-c2ccccn2)nc2ccccc12 | inconclusive: 10.4 µM [inhibitor, single point] |
| Cc1ccc(CN2CCN(C3CCC3)CC2CCO)cc1 (stereo unspecified) | inconclusive: 11.7 µM [inhibitor, single point] |
| O=C(NC(NC(=S)Nc1cccc(Cl)c1)C(Cl)(Cl)Cl)OCc1ccccc1 (stereo unspecified) | inconclusive: 9.28 µM [inhibitor, single point] |
| O=C(COc1coc(CN2CCc3ccccc3C2)cc1=O)Nc1cccc(F)c1 | active: 4.65 µM |
| Cc1cccc(N2CC(C(=O)Nc3ccccc3N3CCCC3)CC2=O)c1C (stereo unspecified) | active: 5.22 µM |
| O=C(Cn1c(=O)oc2cc(S(=O)(=O)N3CCCC3)ccc21)NC1CCCCC1 | inconclusive: 10.4 µM [inhibitor, partial curve] |
| Nc1c(N(Cc2ccccc2)C(=O)CCc2ccccc2)c(=O)[nH]c(=O)n1Cc1ccccc1 | inconclusive: 4.15 µM [inhibitor, partial curve, poor fit] |
| COc1ccccc1NC(=O)COC(=O)c1ccccc1OCC(=O)Nc1ccc(SC(F)F)cc1 | inactive |
| COC(=O)c1cc(S(=O)(=O)N2CCOCC2)c(N2CCOCC2)cc1N1CCOCC1 | inconclusive: 9.28 µM [inhibitor, partial curve] |
| COc1cccc(-c2nc(CS(=O)(=O)c3ccccc3)no2)c1 | inconclusive: 4.15 µM [inhibitor, single point] |
| CC(C)c1ccc(N2C(=O)C(Cl)=C(N3CCOCC3)C2=O)cc1 | inactive |
| CCN(Cc1ccncc1)Cc1c(O)ccc2cc(Br)ccc12 | active: 6.57 µM |
| CCCCn1c(N)c(N(CC)C(=O)c2cc3c(s2)CCCCC3)c(=O)[nH]c1=O | inactive |
| CCCn1c(=O)c2ccccc2n2c(SCc3c(C(=O)OCC)oc4ccccc34)nnc12 | inactive |
| CCCCN(C(=O)CN1C(=O)C2CCCCC2C1=O)c1c(N)n(CCC)c(=O)[nH]c1=O (stereo unspecified) | inactive |
| C=CCn1c(=O)c2c3c(sc2n2c(Nc4ccc(C(=O)OCC)cc4)nnc12)CCCC3 | inconclusive: 18.5 µM [inhibitor, single point] |
| CCc1ccc(S(=O)(=O)Nc2nccs2)cc1 | inconclusive: 18.5 µM [inhibitor, single point] |
| CCCN(CC1CCCO1)C(=O)CCc1nnc(-c2cc(C)on2)o1 (stereo unspecified) | inactive |
| O=C(NCCCN1CCOCC1)c1ccc(NS(=O)(=O)c2ccccc2)cc1 | inactive |
| CN(C)CCCC(C)(O)C(C)(C)c1ccccc1 (stereo unspecified) | inactive |
| Cc1cccc(N(C)C(=O)c2cc3c(=O)[nH]c4ccc(C)cc4c3s2)c1 | inconclusive: 18.5 µM [inhibitor, single point] |

Part of the list above in order of formula weight, high to low:

| SMILES | Potency |
| --- | --- |
| CCCn1c(=O)c2ccccc2n2c(SCc3c(C(=O)OCC)oc4ccccc34)nnc12 | inactive |
| C=CCn1c(=O)c2c3c(sc2n2c(Nc4ccc(C(=O)OCC)cc4)nnc12)CCCC3 | inconclusive: 18.5 µM [inhibitor, single point] |
| Cc1cccc(N(C)C(=O)c2cc3c(=O)[nH]c4ccc(C)cc4c3s2)c1 | inconclusive: 18.5 µM [inhibitor, single point] |
